Assay results: publication doi:10.1101/264788
Results are given in words; binding and its absence hold for the method and conditions named. In cells and extracts the contact can be indirect. These calls come from enrichment with a bait or labelling near it, and not all partners need be listed.

By UniProt entry, the sequences of proteins in these tests, tags left out. Residues count along the entry.
UniProt P49336: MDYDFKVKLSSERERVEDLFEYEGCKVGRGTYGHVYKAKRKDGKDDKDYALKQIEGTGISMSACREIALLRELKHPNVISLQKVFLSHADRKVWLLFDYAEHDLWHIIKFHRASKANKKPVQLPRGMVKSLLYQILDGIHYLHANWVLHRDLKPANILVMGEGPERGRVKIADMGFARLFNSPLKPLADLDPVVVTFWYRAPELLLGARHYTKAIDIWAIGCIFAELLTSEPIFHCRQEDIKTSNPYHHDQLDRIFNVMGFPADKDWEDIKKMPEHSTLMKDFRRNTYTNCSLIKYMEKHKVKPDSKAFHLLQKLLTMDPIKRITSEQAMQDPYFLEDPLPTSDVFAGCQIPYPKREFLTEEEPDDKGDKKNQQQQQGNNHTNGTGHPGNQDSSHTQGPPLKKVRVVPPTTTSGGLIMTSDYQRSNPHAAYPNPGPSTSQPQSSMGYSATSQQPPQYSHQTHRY
UniProt Q9UHV7: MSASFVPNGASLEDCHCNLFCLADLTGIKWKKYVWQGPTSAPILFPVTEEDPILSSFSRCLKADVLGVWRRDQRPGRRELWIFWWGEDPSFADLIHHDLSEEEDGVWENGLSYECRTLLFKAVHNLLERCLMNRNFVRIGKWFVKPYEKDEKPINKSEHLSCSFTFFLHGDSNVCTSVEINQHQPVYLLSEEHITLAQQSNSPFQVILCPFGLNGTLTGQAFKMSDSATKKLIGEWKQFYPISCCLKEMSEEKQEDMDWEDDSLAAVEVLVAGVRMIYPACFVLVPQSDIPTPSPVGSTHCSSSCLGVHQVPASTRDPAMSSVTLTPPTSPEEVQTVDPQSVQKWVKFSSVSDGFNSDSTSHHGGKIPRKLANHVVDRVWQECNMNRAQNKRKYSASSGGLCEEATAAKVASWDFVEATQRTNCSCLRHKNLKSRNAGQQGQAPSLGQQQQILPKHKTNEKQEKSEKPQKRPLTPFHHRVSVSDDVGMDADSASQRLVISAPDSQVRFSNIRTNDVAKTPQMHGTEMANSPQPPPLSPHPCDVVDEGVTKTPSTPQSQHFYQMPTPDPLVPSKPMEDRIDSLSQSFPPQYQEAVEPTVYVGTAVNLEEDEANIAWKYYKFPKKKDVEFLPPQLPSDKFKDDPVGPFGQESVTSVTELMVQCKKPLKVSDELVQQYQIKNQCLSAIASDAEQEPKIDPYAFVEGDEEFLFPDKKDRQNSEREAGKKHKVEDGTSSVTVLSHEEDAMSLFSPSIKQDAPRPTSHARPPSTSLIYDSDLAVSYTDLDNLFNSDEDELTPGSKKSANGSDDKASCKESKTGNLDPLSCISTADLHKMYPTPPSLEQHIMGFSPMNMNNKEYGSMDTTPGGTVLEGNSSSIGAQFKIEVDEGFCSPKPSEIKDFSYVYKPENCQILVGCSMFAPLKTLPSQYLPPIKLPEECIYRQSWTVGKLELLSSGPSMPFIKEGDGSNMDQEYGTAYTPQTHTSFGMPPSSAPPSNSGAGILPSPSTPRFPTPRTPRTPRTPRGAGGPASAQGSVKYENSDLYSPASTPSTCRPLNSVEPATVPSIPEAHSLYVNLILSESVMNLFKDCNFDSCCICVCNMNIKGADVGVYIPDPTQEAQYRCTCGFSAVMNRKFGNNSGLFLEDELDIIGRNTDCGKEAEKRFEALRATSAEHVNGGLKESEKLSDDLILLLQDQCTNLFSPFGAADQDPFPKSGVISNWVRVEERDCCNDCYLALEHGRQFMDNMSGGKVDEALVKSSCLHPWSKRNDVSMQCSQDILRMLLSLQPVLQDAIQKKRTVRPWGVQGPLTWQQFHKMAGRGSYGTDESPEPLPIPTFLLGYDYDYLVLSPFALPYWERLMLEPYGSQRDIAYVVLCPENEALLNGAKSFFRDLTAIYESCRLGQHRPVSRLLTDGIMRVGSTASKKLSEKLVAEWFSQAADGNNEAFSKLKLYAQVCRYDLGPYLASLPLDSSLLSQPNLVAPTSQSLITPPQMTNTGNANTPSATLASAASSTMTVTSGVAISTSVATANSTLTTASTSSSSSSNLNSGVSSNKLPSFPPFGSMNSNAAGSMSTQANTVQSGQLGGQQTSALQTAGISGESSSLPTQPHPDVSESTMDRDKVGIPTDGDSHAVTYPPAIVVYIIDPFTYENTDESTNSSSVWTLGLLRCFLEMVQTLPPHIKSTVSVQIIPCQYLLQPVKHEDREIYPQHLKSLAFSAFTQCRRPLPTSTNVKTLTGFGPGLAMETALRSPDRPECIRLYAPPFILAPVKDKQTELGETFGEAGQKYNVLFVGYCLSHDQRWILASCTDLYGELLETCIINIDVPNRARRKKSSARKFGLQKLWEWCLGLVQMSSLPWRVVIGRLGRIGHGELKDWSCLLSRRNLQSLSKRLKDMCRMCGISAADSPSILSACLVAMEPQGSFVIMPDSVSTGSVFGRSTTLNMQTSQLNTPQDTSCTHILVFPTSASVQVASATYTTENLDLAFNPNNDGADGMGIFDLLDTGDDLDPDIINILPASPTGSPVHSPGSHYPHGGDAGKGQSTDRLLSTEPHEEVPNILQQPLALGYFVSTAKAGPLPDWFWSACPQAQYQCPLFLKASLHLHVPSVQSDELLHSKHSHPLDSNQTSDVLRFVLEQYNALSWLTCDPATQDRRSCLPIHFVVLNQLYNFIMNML
UniProt P50613: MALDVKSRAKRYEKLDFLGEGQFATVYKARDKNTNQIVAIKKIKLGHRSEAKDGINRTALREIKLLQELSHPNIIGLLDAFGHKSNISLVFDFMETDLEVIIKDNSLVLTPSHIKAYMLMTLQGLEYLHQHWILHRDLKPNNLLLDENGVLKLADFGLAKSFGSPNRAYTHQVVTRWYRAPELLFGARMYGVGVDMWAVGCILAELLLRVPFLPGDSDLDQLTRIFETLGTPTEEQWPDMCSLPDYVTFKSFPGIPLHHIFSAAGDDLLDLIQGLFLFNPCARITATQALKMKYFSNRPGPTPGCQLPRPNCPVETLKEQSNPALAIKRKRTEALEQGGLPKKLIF
UniProt P02545, residues 1-646: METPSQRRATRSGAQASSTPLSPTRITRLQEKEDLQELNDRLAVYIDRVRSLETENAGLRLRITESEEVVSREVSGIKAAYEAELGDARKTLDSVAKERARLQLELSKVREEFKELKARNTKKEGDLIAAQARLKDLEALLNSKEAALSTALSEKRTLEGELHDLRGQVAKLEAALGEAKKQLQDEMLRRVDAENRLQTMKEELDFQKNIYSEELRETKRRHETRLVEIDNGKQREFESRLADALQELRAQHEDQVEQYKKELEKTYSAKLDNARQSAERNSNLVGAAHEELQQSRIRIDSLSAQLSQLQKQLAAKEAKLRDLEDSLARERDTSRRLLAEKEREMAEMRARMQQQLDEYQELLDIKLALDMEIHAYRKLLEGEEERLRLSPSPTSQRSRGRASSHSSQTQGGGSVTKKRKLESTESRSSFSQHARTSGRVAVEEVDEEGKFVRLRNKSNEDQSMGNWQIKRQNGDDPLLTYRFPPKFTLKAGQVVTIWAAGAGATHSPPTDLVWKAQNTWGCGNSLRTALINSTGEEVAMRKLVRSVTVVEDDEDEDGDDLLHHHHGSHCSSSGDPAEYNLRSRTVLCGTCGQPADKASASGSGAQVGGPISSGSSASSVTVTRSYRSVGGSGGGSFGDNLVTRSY
UniProt Q15648: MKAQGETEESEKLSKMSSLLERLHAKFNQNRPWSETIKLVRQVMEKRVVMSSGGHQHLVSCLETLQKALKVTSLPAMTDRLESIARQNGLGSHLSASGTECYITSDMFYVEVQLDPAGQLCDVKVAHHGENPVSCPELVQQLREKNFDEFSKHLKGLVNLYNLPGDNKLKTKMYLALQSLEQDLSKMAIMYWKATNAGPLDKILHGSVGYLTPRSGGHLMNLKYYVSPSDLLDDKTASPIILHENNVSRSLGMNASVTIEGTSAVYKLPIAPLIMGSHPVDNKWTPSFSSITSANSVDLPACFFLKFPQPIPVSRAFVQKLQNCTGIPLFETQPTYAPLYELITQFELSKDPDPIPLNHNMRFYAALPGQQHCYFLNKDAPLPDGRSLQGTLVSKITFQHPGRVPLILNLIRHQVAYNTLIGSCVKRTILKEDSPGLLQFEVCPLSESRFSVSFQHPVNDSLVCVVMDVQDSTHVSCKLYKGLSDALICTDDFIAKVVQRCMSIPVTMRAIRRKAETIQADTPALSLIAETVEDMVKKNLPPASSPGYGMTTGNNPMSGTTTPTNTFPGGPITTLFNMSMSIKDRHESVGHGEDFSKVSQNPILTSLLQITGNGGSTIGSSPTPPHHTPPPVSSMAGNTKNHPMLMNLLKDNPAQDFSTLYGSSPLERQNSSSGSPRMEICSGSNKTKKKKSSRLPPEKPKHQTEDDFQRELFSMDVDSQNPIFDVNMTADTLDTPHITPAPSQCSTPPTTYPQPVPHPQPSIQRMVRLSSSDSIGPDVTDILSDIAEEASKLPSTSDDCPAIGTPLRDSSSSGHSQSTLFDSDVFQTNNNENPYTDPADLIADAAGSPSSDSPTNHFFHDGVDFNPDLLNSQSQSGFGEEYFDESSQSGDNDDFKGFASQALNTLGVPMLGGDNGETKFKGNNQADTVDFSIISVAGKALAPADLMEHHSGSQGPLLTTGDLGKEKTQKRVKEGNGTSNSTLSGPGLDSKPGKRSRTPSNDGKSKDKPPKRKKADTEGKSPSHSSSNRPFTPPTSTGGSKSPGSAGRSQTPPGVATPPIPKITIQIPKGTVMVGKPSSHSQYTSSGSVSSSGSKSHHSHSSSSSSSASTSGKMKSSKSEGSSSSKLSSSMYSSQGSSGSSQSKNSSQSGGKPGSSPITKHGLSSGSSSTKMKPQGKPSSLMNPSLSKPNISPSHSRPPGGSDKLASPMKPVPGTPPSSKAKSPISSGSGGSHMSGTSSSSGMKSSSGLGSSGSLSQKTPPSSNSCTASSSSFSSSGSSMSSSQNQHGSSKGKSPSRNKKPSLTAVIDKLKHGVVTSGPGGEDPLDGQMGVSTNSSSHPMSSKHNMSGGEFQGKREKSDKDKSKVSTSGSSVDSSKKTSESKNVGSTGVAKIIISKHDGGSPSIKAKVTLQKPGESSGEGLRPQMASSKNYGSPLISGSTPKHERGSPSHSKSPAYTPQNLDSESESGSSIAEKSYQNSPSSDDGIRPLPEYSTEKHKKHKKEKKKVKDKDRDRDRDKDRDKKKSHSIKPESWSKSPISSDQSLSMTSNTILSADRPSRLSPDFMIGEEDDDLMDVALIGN
UniProt Q96RN5: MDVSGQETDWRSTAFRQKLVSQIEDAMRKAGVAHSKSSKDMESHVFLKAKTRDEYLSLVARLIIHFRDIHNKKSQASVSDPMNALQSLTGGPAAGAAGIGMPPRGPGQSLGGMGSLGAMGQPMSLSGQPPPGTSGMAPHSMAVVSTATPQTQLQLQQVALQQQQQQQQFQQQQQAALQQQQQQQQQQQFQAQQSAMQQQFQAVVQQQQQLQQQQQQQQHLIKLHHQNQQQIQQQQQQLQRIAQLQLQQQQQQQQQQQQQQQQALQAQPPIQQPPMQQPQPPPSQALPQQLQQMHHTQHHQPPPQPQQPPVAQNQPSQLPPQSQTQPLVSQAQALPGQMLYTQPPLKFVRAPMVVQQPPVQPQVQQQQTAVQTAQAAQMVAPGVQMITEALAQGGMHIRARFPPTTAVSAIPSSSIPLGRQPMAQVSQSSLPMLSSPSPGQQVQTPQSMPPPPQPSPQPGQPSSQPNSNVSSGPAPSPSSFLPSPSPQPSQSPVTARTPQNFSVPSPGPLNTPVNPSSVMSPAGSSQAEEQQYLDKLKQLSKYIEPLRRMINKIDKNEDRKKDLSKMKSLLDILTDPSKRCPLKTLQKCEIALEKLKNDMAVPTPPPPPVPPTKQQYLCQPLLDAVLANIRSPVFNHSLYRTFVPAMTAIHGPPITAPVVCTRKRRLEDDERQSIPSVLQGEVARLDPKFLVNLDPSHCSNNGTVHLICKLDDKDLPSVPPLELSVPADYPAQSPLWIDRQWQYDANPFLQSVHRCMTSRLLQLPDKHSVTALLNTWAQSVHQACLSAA

Legend:
Experiment in all cases: affinity purification with mass spectrometry + proximity labelling
[1] = target: cyclin-dependent kinase (CDK) 8, MAC-tagged (UniProt P49336)
[2] = target: mediator of RNA polymerase II transcription subunit 13, MAC-tagged (UniProt Q9UHV7)
[3] = target: cyclin-dependent kinase (CDK) 7, MAC-tagged (UniProt P50613)
[4] = target: Prelamin-A/C, MAC-tagged (human) (UniProt P02545)

| Molecule | binding [1] | binding [2] | binding [3] | binding [4] |
| --- | --- | --- | --- | --- |
| MED1 (from UniProt Q15648 1-1581) | binds | binds |  |  |
| MED15 (from UniProt Q96RN5 1-788) | binds | binds |  |  |
| ERCC5 (protein, UniProt P28715 1-1186) MGVQGLWKLLECSGRQVSPEALEGKILAVDISIWLNQALKGVRDRHGNSIENPHLLTLFHRLCKLLFFRIRPIFVFDGDAPLLKKQTLVKRRQRKDLASSDSRKTTEKLLKTFLKRQAIKTAFRSKRDEALPSLTQVRRENDLYVLPPLQEEEKHSSEEEDEKEWQERMNQKQALQEEFFHNPQAIDIESEDFSSLPPEVKHEILTDMKEFTKRRRTLFEAMPEESDDFSQYQLKGLLKKNYLNQHIEHVQKEMNQQHSGHIRRQYEDEGGFLKEVESRRVVSEDTSHYILIKGIQAKTVAEVDSESLPSSSKMHGMSFDVKSSPCEKLKTEKEPDATPPSPRTLLAMQAALLGSSSEEELESENRRQARGRNAPAAVDEGSISPRTLSAIKRALDDDEDVKVCAGDDVQTGGPGAEEMRINSSTENSDEGLKVRDGKGIPFTATLASSSVNSAEEHVASTNEGREPTDSVPKEQMSLVHVGTEAFPISDESMIKDRKDRLPLESAVVRHSDAPGLPNGRELTPASPTCTNSVSKNETHAEVLEQQNELCPYESKFDSSLLSSDDETKCKPNSASEVIGPVSLQETSSIVSVPSEAVDNVENVVSFNAKEHENFLETIQEQQTTESAGQDLISIPKAVEPMEIDSEESESDGSFIEVQSVISDEELQAEFPETSKPPSEQGEEELVGTREGEAPAESESLLRDNSERDDVDGEPQEAEKDAEDSLHEWQDINLEELETLESNLLAQQNSLKAQKQQQERIAATVTGQMFLESQELLRLFGIPYIQAPMEAEAQCAILDLTDQTSGTITDDSDIWLFGARHVYRNFFNKNKFVEYYQYVDFHNQLGLDRNKLINLAYLLGSDYTEGIPTVGCVTAMEILNEFPGHGLEPLLKFSEWWHEAQKNPKIRPNPHDTKVKKKLRTLQLTPGFPNPAVAEAYLKPVVDDSKGSFLWGKPDLDKIREFCQRYFGWNRTKTDESLFPVLKQLDAQQTQLRIDSFFRLAQQEKEDAKRIKSQRLNRAVTCMLRKEKEAAASEIEAVSVAMEKEFELLDKAKGKTQKRGITNTLEESSSLKRKRLSDSKGKNTCGGFLGETCLSESSDGSSSEDAESSSLMNVQRRTAAKEPKTSASDSQNSVKEAPVKNGGATTSSSSDSDDDGGKEKMVLVTARSVFGKKRRKLRRARGRKRKT |  |  | binds |  |
| EDF1 (protein, UniProt O60869 1-148) MAESDWDTVTVLRKKGPTAAQAKSKQAILAAQRRGEDVETSKKWAAGQNKQHSITKNTAKLDRETEELHHDRVTLEVGKVIQQGRQSKGLTQKDLATKINEKPQVIADYESGRAIPNNQVLGKIERAIGLKLRGKDIGKPIEKGPRAK |  |  |  | binds |

Next, values leading:

| binding [1] | binding [2] | binding [3] | binding [4] | Molecule |
| --- | --- | --- | --- | --- |
| binds | binds |  |  | MED14 (from UniProt O60244 1-1454) |
|  |  |  | binds | MYSM1 (protein, UniProt Q5VVJ2 1-828) MAAEEADVDIEGDVVAAAGAQPGSGENTASVLQKDHYLDSSWRTENGLIPWTLDNTISEENRAVIEKMLLEEEYYLSKKSQPEKVWLDQKEDDKKYMKSLQKTAKIMVHSPTKPASYSVKWTIEEKELFEQGLAKFGRRWTKISKLIGSRTVLQVKSYARQYFKNKVKCGLDKETPNQKTGHNLQVKNEDKGTKAWTPSCLRGRADPNLNAVKIEKLSDDEEVDITDEVDELSSQTPQKNSSSDLLLDFPNSKMHETNQGEFITSDSQEALFSKSSRGCLQNEKQDETLSSSEITLWTEKQSNGDKKSIELNDQKFNELIKNCNKHDGRGIIVDARQLPSPEPCEIQKNLNDNEMLFHSCQMVEESHEEEELKPPEQEIEIDRNIIQEEEKQAIPEFFEGRQAKTPERYLKIRNYILDQWEICKPKYLNKTSVRPGLKNCGDVNCIGRIHTYLELIGAINFGCEQAVYNRPQTVDKVRIRDRKDAVEAYQLAQRLQSMRTRRRRVRDPWGNWCDAKDLEGQTFEHLSAEELAKRREEEKGRPVKSLKVPRPTKSSFDPFQLIPCNFFSEEKQEPFQVKVASEALLIMDLHAHVSMAEVIGLLGGRYSEVDKVVEVCAAEPCNSLSTGLQCEMDPVSQTQASETLAVRGFSVIGWYHSHPAFDPNPSLRDIDTQAKYQSYFSRGGAKFIGMIVSPYNRNNPLPYSQITCLVISEEISPDGSYRLPYKFEVQQMLEEPQWGLVFEKTRWIIEKYRLSHSSVPMDKIFRRDSDLTCLQKLLECMRKTLSKVTNCFMAEEFLTEIENLFLSNYKSNQENGVTEENCTKELLM |
|  |  |  | binds | AKP8L (protein, UniProt Q9ULX6 1-646) MSYTGFVQGSETTLQSTYSDTSAQPTCDYGYGTWNSGTNRGYEGYGYGYGYGQDNTTNYGYGMATSHSWEMPSSDTNANTSASGSASADSVLSRINQRLDMVPHLETDMMQGGVYGSGGERYDSYESCDSRAVLSERDLYRSGYDYSELDPEMEMAYEGQYDAYRDQFRMRGNDTFGPRAQGWARDARSGRPMASGYGRMWEDPMGARGQCMSGASRLPSLFSQNIIPEYGMFQGMRGGGAFPGGSRFGFGFGNGMKQMRRTWKTWTTADFRTKKKKRKQGGSPDEPDSKATRTDCSDNSDSDNDEGTEGEATEGLEGTEAVEKGSRVDGEDEEGKEDGREEGKEDPEKGALTTQDENGQTKRKLQAGKKSQDKQKKRQRDRMVERIQFVCSLCKYRTFYEDEMASHLDSKFHKEHFKYVGTKLPKQTADFLQEYVTNKTKKTEELRKTVEDLDGLIQQIYRDQDLTQEIAMEHFVKKVEAAHCAACDLFIPMQFGIIQKHLKTMDHNRNRRLMMEQSKKSSLMVARSILNNKLISKKLERYLKGENPFTDSPEEEKEQEEAEGGALDEGAQGEAAGISEGAEGVPAQPPVPPEPAPGAVSPPPPPPPEEEEEGAVPLLGGALQRQIRGIPGLDVEDDEEGGGGAP |
